Results are given in words; binding and its absence hold for the method and conditions named. Binding seen in cells or lysates may run through a third protein. A yes stands for co-enrichment or nearness to the bait. Other partners may have been found.
Molecular target: MYO7A (myosin VIIA), chick stereocilia membranes (chicken (endogenous in E19-E21 chick inner ear))
Assay: affinity purification with mass spectrometry; 138-1 anti-MYO7A beads on RIPA extract (S7) of chick stereocilia membranes, ~500 ear-equivalents, control IgG beads first; shotgun (data-dependent) mass spectrometry, six runs

binding: binds
B1: GRXCR1, chick stereocilia membranes (protein, UniProt E1C085 1-293)
chain: MFKGEVKAESERLSRKVRFRVASSHSGRVLKEVYADGEATDSLDSEYTSSSETDQTSRLSEVEGQQNGHGGSECDENENEQDDLLILVRATKEKGFGTKRVNILSKNGTVRGVKHKVSAGQALFDNLSKIFQVSTVPEFGRIVIYTTSLRVVRTTFERCELVRKIFQNHRVKFEEKNIALNSDYGKELDERCRRVCEAPSLPVVFIDGHYLGGAEKILLMNESGELQDLLTKIEKVQHPHECPSCGGFGFLPCSVCHGSKMSVFRNCFTDSFKALKCTACNENGLQRCRSCAS

— PMC5005036, “PDZD7-MYO7A complex identified in enriched stereocilia membranes” (eLife, 2016)
